These results are taken from PubChem BioAssay AID248 (DTP/NCI, 2004).

The list shows only some results of the screen, not a fair sample: it covers a few groups of compounds. Not every dose and run of a compound is shown. T/C gives the treated animals as a percentage of the vehicle group. Some doses have a count of surviving animals in place of a T/C: the source holds a T/C of zero for them, seemingly a mark for toxic or unscored doses. Some survivor counts are full or nearly so, which does not show that the dose was tolerated: survival well below the control is almost never listed, so the zero probably covers shortened survival too. Counts of survivors are from the toxicity check (mostly the fifth day) where no day follows; animals may have died later. Schedules are NCI's codes, taken here to give the interval after Q, in days (D) or hours (H), and the number of doses after X. Marks such as (2×) stand for listed records that agree. Some doses were run more than once; the results are listed from low to high. Some schedules carry Z or #; the key to these is not given. Where survival is the endpoint, the PubChem record calls one and a half times the control and up active, and a quarter to a half above the control has no call in these data; cut-offs in other NCI protocols can differ. Some entries show no survivor count and are marked so; the dose need not have been tolerated. Some T/C values are followed by the survivors on the day toxicity was checked, most often the fifth; without a count or a note in brackets, all were alive then. Some complexes appear as separate parts, the way the source draws them; their charges need not add up.

In the assay the test system is L1210 leukemia ip in BDF1 mice, survival T/C. The assay can be described thus: NCI In Vivo Anticancer Drug Screen. Data for tumor model L1210 Leukemia (intraperitoneal) in B6D2F1 (BDF1) mice. As to conditions: higher T/C = longer survival.
Setting [1] is: T/C endpoint: mean survival time, dose: 100.0 mg/kg/injection, schedule: Q04DX002 (ip), vehicle: saline with Tween-80.
[2] abbreviates: T/C endpoint: mean survival time, dose: 200.0 mg/kg/injection, schedule: Q04DX002 (ip), vehicle: saline with Tween-80.
The mark [3] stands for this setting: T/C endpoint: mean survival time, dose: 200.0 mg/kg/injection, schedule: Q01DX001 (ip), vehicle: saline.

For `C[PH+](c1ccccc1)c1ccccc1.C[PH+](c1ccccc1)c1ccccc1.C[PH+](c1ccccc1)c1ccccc1.C[PH+](c1ccccc1)c1ccccc1.F[P-](F)(F)(F)(F)F.[Rh]`, the T/C is 93 % of control (T/C endpoint: mean survival time, dose: 25.0 mg/kg/injection, schedule: Q04DX002 (ip), vehicle: saline with Tween-80); 86 % of control (T/C endpoint: mean survival time, dose: 50.0 mg/kg/injection, schedule: Q04DX002 (ip), vehicle: saline with Tween-80); 117 % of control under setting [1]; 90 % of control under setting [2].
Regarding `O=[As](O)(c1ccc(Cl)cc1)C1CCCCC1O` (stereo not drawn), the T/C (T/C endpoint: mean survival time, dose: 25.0 mg/kg/injection, schedule: Q04DX003 (ip), vehicle: saline with Tween-80) was 91 % of control. Also, the survivor count was 6 of 6 (T/C endpoint: mean survival time, dose: 50.0 mg/kg/injection, schedule: Q04DX003 (ip), vehicle: saline with Tween-80); 0 of 6 (2×) (T/C endpoint: mean survival time, dose: 100.0 mg/kg/injection, schedule: Q04DX003 (ip), vehicle: saline with Tween-80); 0 of 6 (T/C endpoint: mean survival time, dose: 200.0 mg/kg/injection, schedule: Q04DX003 (ip), vehicle: saline with Tween-80); 0 of 6 (T/C endpoint: mean survival time, dose: 400.0 mg/kg/injection, schedule: Q04DX003 (ip), vehicle: saline with Tween-80).
Consider `O=[N+]([O-])c1cc([N+](=O)[O-])c(F)c([N+](=O)[O-])c1`, for which, where the note is “T/C endpoint: mean survival time, dose: 75.0 mg/kg/injection, schedule: Q01DX001 (ip), vehicle: saline”, the T/C was 94 % of control [survivor count not shown].
As for `CN(/N=C\c1ccc(N(CCBr)CCBr)cc1)C(=N)N`, the T/C (T/C endpoint: mean survival time, dose: 0.7 mg/kg/injection, schedule: Q01DX015 (ip), vehicle: carboxymethylcellulose (CMC)) was 98 % of control; the T/C (T/C endpoint: mean survival time, dose: 1.25 mg/kg/injection, schedule: Q01DX015 (ip), vehicle: carboxymethylcellulose (CMC)) is 112 % of control; the T/C (T/C endpoint: mean survival time, dose: 2.5 mg/kg/injection, schedule: Q01DX015 (ip), vehicle: carboxymethylcellulose (CMC)) was 105 % of control; the T/C (T/C endpoint: mean survival time, dose: 5.0 mg/kg/injection, schedule: Q01DX015 (ip), vehicle: carboxymethylcellulose (CMC)) was 107 % of control; the T/C (T/C endpoint: mean survival time, dose: 10.0 mg/kg/injection, schedule: Q01DX015 (ip), vehicle: carboxymethylcellulose (CMC)) was 115 % of control; the T/C (T/C endpoint: mean survival time, dose: 100.0 mg/kg/injection, schedule: Q01DX001 (ip), vehicle: carboxymethylcellulose (CMC)) is 106 % of control. Further, the T/C reads like this: (T/C endpoint: mean survival time, dose: 200.0 mg/kg/injection, schedule: Q01DX001 (ip), vehicle: carboxymethylcellulose (CMC)) 100 % of control; (T/C endpoint: mean survival time, dose: 400.0 mg/kg/injection, schedule: Q01DX001 (ip), vehicle: carboxymethylcellulose (CMC)) 114 % of control.
Take `CCNP(=O)(OCCC=O)N(CCCl)CCCl` (stereo not drawn): the T/C (T/C endpoint: mean survival time, dose: 125.0 mg/kg/injection, schedule: Q01DX001 (ip), vehicle: DMSO) was 117 % of control; the T/C (T/C endpoint: mean survival time, dose: 250.0 mg/kg/injection, schedule: Q01DX001 (ip), vehicle: DMSO) is 117 % of control; the T/C (T/C endpoint: mean survival time, dose: 500.0 mg/kg/injection, schedule: Q01DX001 (ip), vehicle: DMSO) is 136 % of control [5 of 6 alive]. In addition, the survivor count runs as follows: (T/C endpoint: mean survival time, dose: 750.0 mg/kg/injection, schedule: Q01DX001 (ip), vehicle: DMSO) 1 of 6; (T/C endpoint: mean survival time, dose: 1000.0 mg/kg/injection, schedule: Q01DX001 (ip), vehicle: DMSO) 0 of 6; (T/C endpoint: mean survival time, dose: 1250.0 mg/kg/injection, schedule: Q01DX001 (ip), vehicle: DMSO) 0 of 6.
As for `CCN(CC)CCOC(=O)C(O)(c1ccccc1)c1ccc(C)cc1C` (stereo not drawn), the T/C (T/C endpoint: mean survival time, dose: 75.0 mg/kg/injection, schedule: Q01DX001 (ip), vehicle: other) was 93 % of control.
For the compound `O=[N+]([O-])c1ccc(NCCNc2ccc([N+](=O)[O-])cc2[N+](=O)[O-])c([N+](=O)[O-])c1`, the T/C (T/C endpoint: mean survival time, dose: 100.0 mg/kg/injection, schedule: Q04DX002 (ip), vehicle: saline) is 97 % of control; the T/C (T/C endpoint: mean survival time, dose: 200.0 mg/kg/injection, schedule: Q04DX002 (ip), vehicle: saline) is 93 % of control; the T/C (T/C endpoint: mean survival time, dose: 400.0 mg/kg/injection, schedule: Q04DX002 (ip), vehicle: saline) is 93 % of control.
Regarding `NP(=O)(O)N(CCCl)CCCl`, the T/C runs as follows: (T/C endpoint: mean survival time, dose: 15.0 mg/kg/injection, schedule: Q01DX009 (ip), vehicle: saline) 106 % of control; (T/C endpoint: mean survival time, dose: 30.0 mg/kg/injection, schedule: Q01DX009 (ip), vehicle: saline) 114 % of control; (T/C endpoint: mean survival time, dose: 58.0 mg/kg/injection, schedule: Q01DX009 (ip), vehicle: saline) 130 % of control; (T/C endpoint: mean survival time, dose: 88.0 mg/kg/injection, schedule: Q01DX001 (ip), vehicle: saline) 112 % of control; (T/C endpoint: mean survival time, dose: 88.0 mg/kg/injection, schedule: Q01DX009 (ip), vehicle: saline) 121 % of control; (T/C endpoint: mean survival time, dose: 100.0 mg/kg/injection, schedule: Q01DX001 (ip), vehicle: saline) 103 and 114 % of control. Besides, the T/C runs as follows: (T/C endpoint: mean survival time, dose: 133.0 mg/kg/injection, schedule: Q01DX001 (ip), vehicle: saline) 122 % of control; (T/C endpoint: mean survival time, dose: 133.0 mg/kg/injection, schedule: Q01DX009 (ip), vehicle: saline) 113 % of control [5 of 6 alive]; under setting [3], 130 [3 of 4 alive] and 130 % of control [5 of 6 alive]; (T/C endpoint: median survival time, dose: 12.5 mg/kg/injection, schedule: Q01DX009 (ip), vehicle: saline) 127 % of control; (T/C endpoint: median survival time, dose: 25.0 mg/kg/injection, schedule: Q01DX009 (ip), vehicle: saline) 144 % of control; (T/C endpoint: median survival time, dose: 50.0 mg/kg/injection, schedule: Q01DX001 (ip), vehicle: saline) 127 % of control. Further, the T/C reads like this: (T/C endpoint: median survival time, dose: 50.0 mg/kg/injection, schedule: Q01DX009 (ip), vehicle: saline) 188 % of control; (T/C endpoint: median survival time, dose: 100.0 mg/kg/injection, schedule: Q01DX001 (ip), vehicle: saline) 144 % of control; (T/C endpoint: median survival time, dose: 100.0 mg/kg/injection, schedule: Q01DX009 (ip), vehicle: saline) 133 % of control; (T/C endpoint: median survival time, dose: 200.0 mg/kg/injection, schedule: Q01DX001 (ip), vehicle: saline) 122 % of control [7 of 8 alive]. The survivor count is 2 of 6 under setting [3]; 3 of 6 (T/C endpoint: mean survival time, dose: 200.0 mg/kg/injection, schedule: Q01DX009 (ip), vehicle: saline); 1 of 6 (T/C endpoint: mean survival time, dose: 300.0 mg/kg/injection, schedule: Q01DX001 (ip), vehicle: saline); 0 of 6 and 1 of 4 (T/C endpoint: mean survival time, dose: 400.0 mg/kg/injection, schedule: Q01DX001 (ip), vehicle: saline); 1 of 8 (T/C endpoint: median survival time, dose: 400.0 mg/kg/injection, schedule: Q01DX001 (ip), vehicle: saline).
For the compound `CCOP(NN(C)C)OCC`, the T/C runs as follows: (T/C endpoint: mean survival time, dose: 100.0 mg/kg/injection, schedule: Q01DX001 (ip), vehicle: Klucel (hydroxypropylcellulose) (HPC)) 96 % of control; (T/C endpoint: mean survival time, dose: 200.0 mg/kg/injection, schedule: Q01DX001 (ip), vehicle: Klucel (hydroxypropylcellulose) (HPC)) 107 % of control; (T/C endpoint: mean survival time, dose: 400.0 mg/kg/injection, schedule: Q01DX001 (ip), vehicle: Klucel (hydroxypropylcellulose) (HPC)) 103 % of control.
For the compound `CCOP(=O)(O)N(CCCl)CCCl.NC1CCCCC1`, the T/C (T/C endpoint: mean survival time, dose: 62.5 mg/kg/injection, schedule: Q01DX010 (ip), vehicle: saline) was 103 % of control; the T/C (T/C endpoint: mean survival time, dose: 125.0 mg/kg/injection, schedule: Q01DX010 (ip), vehicle: saline) is 111 % of control; the T/C (T/C endpoint: mean survival time, dose: 250.0 mg/kg/injection, schedule: Q01DX010 (ip), vehicle: saline) was 117 % of control; the T/C (T/C endpoint: mean survival time, dose: 250.0 mg/kg/injection, schedule: Q01DX Z (ip), vehicle: saline) is 137 % of control; the T/C (T/C endpoint: mean survival time, dose: 500.0 mg/kg/injection, schedule: Q01DX Z (ip), vehicle: saline) was 137 % of control. The survivor count (T/C endpoint: mean survival time, dose: 750.0 mg/kg/injection, schedule: Q01DX Z (ip), vehicle: saline) was 3 of 6.
On to `BrCCN(Cc1ccccc1)Cc1ccccc1`, for which the T/C is, setting by setting: (T/C endpoint: mean survival time, dose: 100.0 mg/kg/injection, schedule: Q04DX003 (ip), vehicle: Klucel (hydroxypropylcellulose) (HPC)) 91 % of control; (T/C endpoint: mean survival time, dose: 200.0 mg/kg/injection, schedule: Q04DX003 (ip), vehicle: Klucel (hydroxypropylcellulose) (HPC)) 91 % of control; (T/C endpoint: mean survival time, dose: 400.0 mg/kg/injection, schedule: Q04DX003 (ip), vehicle: Klucel (hydroxypropylcellulose) (HPC)) 93 % of control.
As to `CCCOP(C)(=S)OCCC`, the T/C was 99 % of control [survivor count not shown] under setting [1] and 92 % of control [survivor count not shown] under setting [2].
